Reference: patent US7460961B2, “N-TRADD active site and uses thereof” (Genetics Institute, LLC, priority 2000, dated 2008)
Where a chain is given by its changes, count along the chain named. Names and notes keep the numbering of the source. Some of these results come from one statement about several compounds together.

B1: 172A: N-TRADD single point mutant at residue I72 (to alanine) (protein)
chain: MAAGQNGHEEWVGSAYLFVESSLDKVVLSDAYAHPQQKVAVYRALQAALAESGGSPDVLQMLKIHRSDPQLAVQLRFCGRQPCGRFLRAYREGALRAALQRSLAAALAQHSVPLQLELRAGAERLDALLADEERCLSCILAQQPDRLRDEELAELEDALRNLKCGSGAR
modifications: left off: small tags and cut ends
B2: D149A: N-TRADD single point mutant at residue D149 (protein)
chain: B1 chain with A72I, D149A
modifications: left off: small tags and cut ends
notes: N-TRADD single point mutant at residue D149
B3: F18A: N-TRADD single point mutant at residue F18 (protein)
chain: B1 chain with F18A, A72I
modifications: left off: small tags and cut ends
notes: N-TRADD single point mutant at residue F18
B4: H65A: N-TRADD single point mutant at residue H65 (protein)
chain: B1 chain with H65A, A72I
modifications: left off: small tags and cut ends
notes: N-TRADD single point mutant at residue H65

These molecules were tested against T1, C-TRAF2 (residues 262 to 501 of human TRAF2) (Homo sapiens, UniProt Q12933) (assay: BIAcore surface plasmon resonance binding to immobilised C-TRAF2). Conditions: FIG. 3.
T1 construct: C-TRAF2 (residues 262-501) was purified and coupled to a sensor chip CM5; initiator Met added before residue 262 (N); 6xHis (C); made in house; host or cells: baculovirus in 'Tini' cells (insect cells), vector pAcSG2
T1 sequence (Q12933 262-501): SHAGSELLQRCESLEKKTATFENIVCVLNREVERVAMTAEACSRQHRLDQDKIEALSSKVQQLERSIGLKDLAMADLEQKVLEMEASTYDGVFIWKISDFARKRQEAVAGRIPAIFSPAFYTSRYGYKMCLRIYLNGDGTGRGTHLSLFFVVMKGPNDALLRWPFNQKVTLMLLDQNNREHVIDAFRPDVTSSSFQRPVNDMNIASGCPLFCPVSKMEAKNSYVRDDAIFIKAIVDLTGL
Protocol: C-TRAF2 and N-TRADD binding studies: The affinity of wild-type N-TRADD and C-TRAF2 was measured by surface plasma resonance using a BIAcore 2000 system (Pharmacia Biosensor AB). C-TRAF2 (residues 262-501) was purified and coupled to a sensor chip CM5 by amine coupling at pH=5.0 to get about 800, 1500 and 5500 response units on three different flow cells. A constant flow (20 μL/min) of purified N-TRADD protein in 10 mM Hepes, pH=7.4, 150 mM NaCl, 3.4 mM EDTA and 0.05% P20 surfactant at 8 different concentrations from 650 μM to 84 μM was applied over the protein coupled chip for 2 min to analyze the association. Binding constants were obtained from the BIAevaluation software.
The ^1H-^15N HSQC of N-TRADD was used as a tool to map the binding interface with C-TRAF2, since the chemical shifts of contact residues will be perturbed upon complex formation. In the case of N-TRADD, the ^1H-^15N HSQC peaks broadened with the addition of C-TRAF2 due to formation of the large molecular size complex. […] The C-TRAF2 (residues 262-501) used in the instant HSQC titration experiment (at 120 μM) is also a trimer, as determined by size exclusion chromatography. […] Many of the NH resonances belong to residues which face the interior of the protein, and comprise part of the hydrophobic core. The perturbed amino acids whose side chains face the surface of the protein correspond to residues Y16 and F18 in β-1, Q70, 172 and Q74 in β-3, K63 and H65 in β-2 and D68 in the hairpin turn. […] The observed line broadening of these NMR resonances in the ^1H-^15N HSQC are most likely from residues in the binding interface between N-TRADD and C-TRAF2. Additional residues with observed chemical shift differences in their NH side chains include L17, V58, L59, 164, V73, L75, C78, and L118. […] N-TRADD Mutagenesis and interactions between C-TRAF2 and N-TRADD: In order to further characterize the amino acids in N-TRADD that are involved in C-TRAF2 recognition, site directed mutants of N-TRADD were prepared and evaluated for their ability to bind C-TRAF2. Based on the NMR structure of N-TRADD and the ^1H-^15N HSQC analysis of the N-TRADD/C-TRAF2 interaction described above, residues likely to be involved in the binding interface were selected for mutagenesis studies. Five residues (Y16, F18, H65, I72 and D149) were chosen which are located in β-1, β-2, β-3 and before helix 5. These residues cluster on one side of the protein and therefore are most likely involved in direct interactions with C-TRAF2 during complex formation. In addition, mutations of these residues will be less likely to affect the overall structure of N-TRADD. […]
The affinity of N-TRADD mutants to C-TRAF2 was measured by BIAcore. […]

| Molecule | fold reduction in C-TRAF2 binding affinity relative to wild-type N-TRADD |
| --- | --- |
| B1 | 2-3 fold |
| B2 | 2-3 fold |
| B3 | 7-10 fold |
| B4 | 7-10 fold |
